No constants are given. Whether binding was seen depends on the method and setting. For part of these data: Binding seen in cells or lysates may run through a third protein. Some entries that bind do so weakly or less than the wild type. For part of these data: Sequences can lack the tags named with a protein.
Assays:
[1] = target: T1, Rv1708 (MPFC bait, cloned in pUAB400) (M. tuberculosis) (UniProt P9WLT1); assay: split reporter
T1 sequence: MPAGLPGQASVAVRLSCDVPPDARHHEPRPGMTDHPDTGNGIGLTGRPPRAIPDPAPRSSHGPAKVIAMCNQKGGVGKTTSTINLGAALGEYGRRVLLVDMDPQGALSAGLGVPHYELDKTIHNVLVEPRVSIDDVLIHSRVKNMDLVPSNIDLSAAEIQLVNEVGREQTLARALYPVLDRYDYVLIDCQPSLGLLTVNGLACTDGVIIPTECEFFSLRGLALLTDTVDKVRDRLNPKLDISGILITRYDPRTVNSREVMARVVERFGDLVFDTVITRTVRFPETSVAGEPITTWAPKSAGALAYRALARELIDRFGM

By UniProt entry, the sequences of proteins in these tests, tags left out.
UniProt O33208: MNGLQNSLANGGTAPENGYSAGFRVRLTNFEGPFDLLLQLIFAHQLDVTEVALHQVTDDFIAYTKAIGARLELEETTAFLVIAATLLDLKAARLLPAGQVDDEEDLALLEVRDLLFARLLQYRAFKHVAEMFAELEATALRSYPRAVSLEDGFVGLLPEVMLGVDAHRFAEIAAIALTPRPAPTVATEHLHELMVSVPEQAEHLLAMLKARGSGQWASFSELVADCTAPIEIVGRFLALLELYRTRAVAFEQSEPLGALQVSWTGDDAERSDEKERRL

[2] = target: T2, GST-Rv1708 (M. tuberculosis) (UniProt P9WLT1); assay: pull-down
T2 sequence: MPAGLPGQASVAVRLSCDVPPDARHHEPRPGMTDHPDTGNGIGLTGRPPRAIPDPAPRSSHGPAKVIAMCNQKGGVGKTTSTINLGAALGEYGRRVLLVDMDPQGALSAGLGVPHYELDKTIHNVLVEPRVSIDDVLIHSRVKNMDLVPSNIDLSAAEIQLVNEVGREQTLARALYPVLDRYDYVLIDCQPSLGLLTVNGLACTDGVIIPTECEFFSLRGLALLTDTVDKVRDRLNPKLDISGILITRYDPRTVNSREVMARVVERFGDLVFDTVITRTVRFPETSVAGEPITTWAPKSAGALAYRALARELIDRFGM

M. tb ScpA (MPFC prey, cloned in pUAB300) (from UniProt O33208 1-278)
binding [1]: binds

M. tb ScpA with C-terminal 6xHis-tag (from UniProt O33208 1-278)
binding [2]: binds

B1: M. tb ParB (MPFC prey, cloned in pUAB300) (protein, UniProt P9WIJ9 1-344)
chain: MTQPSRRKGGLGRGLAALIPTGPADGESGPPTLGPRMGSATADVVIGGPVPDTSVMGAIYREIPPSAIEANPRQPRQVFDEEALAELVHSIREFGLLQPIVVRSLAGSQTGVRYQIVMGERRWRAAQEAGLATIPAIVRETGDDNLLRDALLENIHRVQLNPLEEAAAYQQLLDEFGVTHDELAARIGRSRPLITNMIRLLKLPIPVQRRVAAGVLSAGHARALLSLEAGPEAQEELASRIVAEGLSVRATEETVTLANHEANRQAHHSDATTPAPPRRKPIQMPGLQDVAERLSTTFDTRVTVSLGKRKGKIVVEFGSVDDLARIVGLMTTDGRDKGLHRDAL
binding [1]: binds

Source: article doi:10.1101/2023.03.20.533423 (bioRxiv, 2023)
